The list is a part of this screen's results and no random one: it is rich in T/C values a quarter to a half above the control, in often repeated tests (any T/C) and in doses without a T/C. Further doses and runs are listed elsewhere. T/C is the treated group as % of the vehicle group. Some entries give survivors of the animals treated and no T/C: the source files T/C as zero there, which appears to mark a toxic dose or a test without result, not a measured value. Some survivor counts are full or nearly so, which does not show that the dose was tolerated: survival well below the control is almost never listed, so the zero probably covers shortened survival too. Survivors were counted at the toxicity check, usually on the fifth day, unless a day is given; later deaths do not show. Schedule codes are those of the source, read here as Q, the interval in days (D) or hours (H), X, the number of doses. Some doses were run more than once; the values are given in rising order. Some structures stand for samples that the source files as different forms (salt, stereo form or complex); doses refer to the form tested. For survival time, the PubChem record calls one and a half times the control and up active, and a quarter to a half above the control has no call in these data; cut-offs in other NCI protocols can differ. Counts like (3×) count equal records among those shown. Some T/C values carry the count of animals alive at the toxicity check (mostly the fifth day); without a count, all were alive then.
Tested on: Gardner 6C3HED lymphosarcoma ip, C3AKF1 mice, survival T/C
Experiment: NCI In Vivo Anticancer Drug Screen. Data for tumor model Lymphosarcoma Gardner 6C3HED (intraperitoneal) in C3AKF1 (CHKRF1) mice
Conditions: T/C endpoint: survival time, mean or median, higher T/C = longer survival
Procedure: The antitumor activity of compounds was measured in mice bearing transplantable tumors. Survival or tumor size were measured and the results are expressed as the measurement made in the treated group (T) divided by the measurement made in the vehicle treated control group (C). The tumor model used in this assay is Lymphosarcoma Gardner 6C3HED (intraperitoneal) in C3AKF1 (CHKRF1) mice

[1] = dose: 40.0 mg/kg/injection, schedule: Q01DX010 (ip), vehicle: saline
[2] = dose: 3.0 mg/kg/injection, schedule: Q01DX010 (ip), vehicle: other
[3] = dose: 2.5 mg/kg/injection, schedule: Q01DX010 (ip), vehicle: saline
[4] = dose: 4.0 mg/kg/injection, schedule: Q01DX010 (ip), vehicle: saline
[5] = dose: 5.0 mg/kg/injection, schedule: Q01DX010 (ip), vehicle: saline
[6] = dose: 8.0 mg/kg/injection, schedule: Q01DX010 (ip), vehicle: saline
[7] = dose: 20.0 mg/kg/injection, schedule: Q01DX010 (ip), vehicle: saline
[8] = dose: 2.0 mg/kg/injection, schedule: Q01DX010 (ip), vehicle: saline
[9] = dose: 100.0 mg/kg/injection, schedule: Q01DX010 (sc), vehicle: steroid suspending solution
[10] = dose: 200.0 mg/kg/injection, schedule: Q01DX010 (sc), vehicle: steroid suspending solution
[11] = dose: 16.0 mg/kg/injection, schedule: Q01DX010 (ip), vehicle: saline
[12] = dose: 125.0 mg/kg/injection, schedule: Q01DX010 (ip), vehicle: saline
[13] = dose: 250.0 mg/kg/injection, schedule: Q01DX010 (ip), vehicle: saline
[14] = dose: 25.0 mg/kg/injection, schedule: Q01DX010 (ip), vehicle: saline
[15] = dose: 100.0 mg/kg/injection, schedule: Q01DX010 (ip), vehicle: alkali diluted with saline

CN(C)c1ccc(/C=C/c2ccnc3ccccc23)cc1
survivor count [1]: 6 of 6

CN(Cc1cnc2nc(N)nc(N)c2n1)c1ccc(C(=O)N[C@@H](CCC(=O)O)C(=O)O)cc1
T/C (dose: 0.19 mg/kg/injection, schedule: Q01DX010 (ip), vehicle: other): 100, 116, 125, 135 % of control
T/C (dose: 0.38 mg/kg/injection, schedule: Q01DX010 (ip), vehicle: other): 125, 133, 150, 180 % of control
T/C (dose: 0.75 mg/kg/injection, schedule: Q01DX010 (ip), vehicle: other): 175, 187, 195, 230 % of control
T/C (dose: 1.5 mg/kg/injection, schedule: Q01DX010 (ip), vehicle: other): 212, 250, 285, 300 % of control
T/C [2]: 229 and 300 % of control
survivor count [2]: 5 of 6 and 6 of 6

C[C@@H]1C[C@@H]([C@H](O)CC2CC(=O)NC(=O)C2)C(=O)[C@@H](C)C1
survivor count [1]: 5 of 6 and 6 of 6

NC(Cc1ccc(N(CCCl)CCCl)cc1)C(=O)O (stereo not drawn)
T/C [3]: 129 % of control
T/C [4]: 130 and 140 % of control
T/C [5]: 137 % of control
T/C [6]: 140 % of control
survivor count [7]: 6 of 6

NC(=O)N(CCCl)N=O
T/C [8]: 127 and 137 % of control
survivor count [4]: 6 of 6

CS(=O)(=O)OCCCl
survivor count (dose: 75.0 mg/kg/injection, schedule: Q01DX010 (ip), vehicle: saline): 3 of 6

O=c1[nH]cc(F)c(=O)[nH]1
T/C [5]: 141 % of control

C[C@]12C=CC(=O)C=C1CC[C@@H]1[C@@H]2C(=O)C[C@@]2(C)[C@H]1CC[C@]2(O)C(=O)CO
T/C (dose: 12.5 mg/kg/injection, schedule: Q01DX010 (sc), vehicle: steroid suspending solution): 108, 125, 130, 155 % of control
T/C (dose: 25.0 mg/kg/injection, schedule: Q01DX010 (sc), vehicle: steroid suspending solution): 105, 116, 125, 160 % of control
T/C (dose: 50.0 mg/kg/injection, schedule: Q01DX010 (sc), vehicle: steroid suspending solution): 110, 116, 125, 129 % of control
T/C [9]: 95, 104, 108 % of control
survivor count [9]: 6 of 6
T/C [10]: 100 % of control
survivor count [10]: 4 of 6, 5 of 6, 6 of 6

O=C(Nc1ccc(NC2=NCCN2)cc1)c1ccc(C(=O)Nc2ccc(NC3=NCCN3)cc2)cc1
T/C [8]: 130 % of control
T/C [11]: 130 % of control

S=P(N1CCOCC1)(N1CC1)N1CC1
T/C [7]: 133 % of control

O=C1C(NC(=O)C2CCCCC2)=C(N2CC2)C(=O)C(NC(=O)C2CCCCC2)=C1N1CC1
T/C (dose: 100.0 mg/kg/injection, schedule: Q01DX010 (ip), vehicle: saline): 126 % of control
T/C (dose: 200.0 mg/kg/injection, schedule: Q01DX010 (ip), vehicle: saline): 134 % of control

CCCCNc1ncnc2c1cnn2C
survivor count [12]: 2 of 6 and 4 of 6
survivor count [13]: 0 of 6

O=C(Nc1ccc(C2=NCCN2)cc1)c1ccc(C(=O)Nc2ccc(C3=NCCN3)cc2)c(Cl)c1
T/C (dose: 2.0 mg/kg/injection, schedule: Q01DX010 (ip), vehicle: other): 145 % of control

C[n+]1c2ccccc2nc2c(N)cc(N)cc21
T/C (dose: 12.0 mg/kg/injection, schedule: Q01DX010 (ip), vehicle: saline): 127 % of control
T/C (dose: 18.0 mg/kg/injection, schedule: Q01DX010 (ip), vehicle: saline): 131 % of control [5 of 6 alive]
T/C (dose: 27.0 mg/kg/injection, schedule: Q01DX010 (ip), vehicle: saline): 131 % of control (2×)
T/C [1]: 131 % of control [5 of 6 alive]

S=c1nc[nH]c2nc[nH]c12
T/C (dose: 5.0 mg/kg/injection, schedule: Q01DX010 (ip), vehicle: alkali diluted with saline): 100, 108, 130 % of control (2×)
T/C (dose: 10.0 mg/kg/injection, schedule: Q01DX010 (ip), vehicle: alkali diluted with saline): 104, 108, 120, 165 % of control
T/C (dose: 20.0 mg/kg/injection, schedule: Q01DX010 (ip), vehicle: alkali diluted with saline): 100, 112, 115, 130 % of control
T/C (dose: 40.0 mg/kg/injection, schedule: Q01DX010 (ip), vehicle: alkali diluted with saline): 100, 125, 130, 140 % of control
T/C (dose: 80.0 mg/kg/injection, schedule: Q01DX010 (ip), vehicle: alkali diluted with saline): 120, 129, 130, 160 % of control

CC(=O)O[C@]1(C(C)=O)CC[C@H]2[C@@H]3C[C@H](C)C4=CC(=O)C=C[C@]4(C)[C@@]3(F)[C@@H](O)C[C@@]21C
survivor count [9]: 6 of 6

S=P(N1CC1)(N1CC1)N1CC1
T/C [4]: 145 % of control

CCOC(=O)NP(=O)(N1CC1(C)C)N1CC1(C)C (stereo not drawn)
T/C [12]: 126 % of control
T/C [13]: 130 % of control

N=[N+]=CC(=O)OCC(N)C(=O)O (stereo not drawn)
T/C (dose: 3.13 mg/kg/injection, schedule: Q01DX010 (ip), vehicle: saline): 130 and 135 % of control
T/C (dose: 6.25 mg/kg/injection, schedule: Q01DX010 (ip), vehicle: saline): 135 % of control
survivor count [14]: 6 of 6

O=C(Nc1ccc(C2=NCCCN2)cc1)c1ccc(C(=O)Nc2ccc(C3=NCCCN3)cc2)cc1
survivor count (dose: 4.0 mg/kg/injection, schedule: Q01DX010 (ip), vehicle: other): 5 of 6
survivor count (dose: 8.0 mg/kg/injection, schedule: Q01DX010 (ip), vehicle: other): 3 of 6 and 5 of 6
survivor count (dose: 16.0 mg/kg/injection, schedule: Q01DX010 (ip), vehicle: other): 3 of 6 and 4 of 6

CN(N=O)C(=O)NC(C=O)C(O)C(O)C(O)CO (stereo not drawn)
T/C (dose: 90.0 mg/kg/injection, schedule: Q01DX010 (ip), vehicle: saline): 127 and 131 % of control

COS(C)(=O)=O
T/C [14]: 134 % of control

Oc1cc(CN(CCCl)CCCl)c(O)cc1CN(CCCl)CCCl
T/C (dose: 0.63 mg/kg/injection, schedule: Q01DX010 (ip), vehicle: saline): 129 % of control
T/C [3]: 133 % of control

OCC1OC(n2cnc3c(Cl)ncnc32)C(O)C1O (stereo not drawn)
survivor count (dose: 62.5 mg/kg/injection, schedule: Q01DX010 (ip), vehicle: saline): 6 of 6

Nc1nc2n[nH]nc2c(=O)[nH]1
T/C [15]: 125 % of control
survivor count [15]: 6 of 6
survivor count (dose: 200.0 mg/kg/injection, schedule: Q01DX010 (ip), vehicle: alkali diluted with saline): 5 of 6 and 6 of 6

CCCNc1ncnc2[nH]ncc12
survivor count [14]: 6 of 6

Cc1cc(N(CCCl)CCCl)ccc1N=Nc1ccccc1C(=O)O
T/C (dose: 10.0 mg/kg/injection, schedule: Q01DX010 (ip), vehicle: saline): 145 % of control
T/C [7]: 145 % of control
survivor count [1]: 6 of 6

C=CC(CN1CC1)OC(C)=O (stereo not drawn)
T/C [4]: 138 % of control
T/C [6]: 130 % of control
survivor count [11]: 5 of 6

N#[N+]c1cnc([O-])[nH]c1=O
T/C (dose: 1.25 mg/kg/injection, schedule: Q01DX010 (ip), vehicle: saline): 125 % of control

O=c1cnn(C2OC(CO)C(O)C2O)c(=O)[nH]1 (stereo not drawn)
survivor count (dose: 1600.0 mg/kg/injection, schedule: Q01DX010 (ip), vehicle: saline): 6 of 6

Reference: PubChem BioAssay AID232 (DTP/NCI, 2004)
